Laboratory results published in paper PMC6593412.
These are yes or no findings as the source states them, for the method shown. Some binding calls cover weakened binding; strength is not graded here.

Molecular target: T1, bovine asialofetuin (bovine) (UniProt P12763)
T1 sequence (chain, glycoprotein, asialo form (asialofetuin)): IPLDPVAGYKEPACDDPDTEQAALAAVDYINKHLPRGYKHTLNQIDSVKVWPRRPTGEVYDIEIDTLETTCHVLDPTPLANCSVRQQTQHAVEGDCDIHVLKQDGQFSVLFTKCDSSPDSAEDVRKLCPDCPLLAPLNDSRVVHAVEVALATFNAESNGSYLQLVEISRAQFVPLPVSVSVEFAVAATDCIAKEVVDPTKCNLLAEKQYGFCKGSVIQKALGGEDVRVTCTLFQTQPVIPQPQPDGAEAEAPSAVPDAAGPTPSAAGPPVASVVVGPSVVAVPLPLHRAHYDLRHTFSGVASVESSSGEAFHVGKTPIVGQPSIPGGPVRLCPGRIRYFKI
Experiment: ELISA; ASF (50 uL of 10 ug/mL in sodium carbonate buffer pH 9.6) immobilised on microtiter plates overnight; blocked with 5% BSA in PBST; different amounts of Gal-13 or Gal-14 incubated 1 h in PBST with 0.5% BSA; detected with anti-His6-HRP, TMB, 450 nm; also after pre-incubation of 50 ug/mL galectin on lactose-agarose beads; both purified

B1: Recombinant galectin-13 (protein, UniProt Q9UHV8 1-139)
chain: MSSLPVPYKLPVSLSVGSCVIIKGTPIHSFINDPQLQVDFYTDMDEDSDIAFRFRVHFGNHVVMNRREFGIWMLEETTDYVPFEDGKQFELCIYVHYNEYEIKVNGIRIYGFVHRIPPSFVKMVQVSRDISLTSVCVCN
binding: binds

B2: Recombinant galectin-14 (protein, UniProt Q8TCE9 1-139)
chain: MSSLPVPYTLPVSLPVGSCVIITGTPILTFVKDPQLEVNFYTGMDEDSDIAFQFRLHFGHPAIMNSCVFGIWRYEEKCYYLPFEDGKPFELCIYVRHKEYKVMVNGQRIYNFAHRFPPASVKMLQVFRDISLTRVLISD
binding: binds
